Reference: PMC9635645
No constants are given. Whether binding was seen depends on the method and setting. In cells and extracts the contact can be indirect. A yes stands for co-enrichment or nearness to the bait. Other partners may have been found.

Biological target: FLAG-BEAF-32B-EGFP (Drosophila)
Assay: affinity purification with mass spectrometry; anti-FLAG M2 magnetic beads on nuclear extracts of 4- to 20-h embryos with FLAG-BEAF-32B-EGFP; control embryos y1 w67c23; 2 experimental and 3 control samples; tandem mass spectrometry

B1: SSRP, subunit of FACT (Facilitates Chromatin Transcription) (protein, UniProt Q05344 1-723)
chain: MTDSLEYNDINAEVRGVLCSGRLKMTEQNIIFKNTKTGKVEQISAEDIDLINSQKFVGTWGLRVFTKGGVLHRFTGFRDSEHEKLGKFIKAAYSQEMVEKEMCVKGWNWGTARFMGSVLSFDKESKTIFEVPLSHVSQCVTGKNEVTLEFHQNDDAPVGLLEMRFHIPAVESAEEDPVDKFHQNVMSKASVISASGESIAIFREIQILTPRGRYDIKIFSTFFQLHGKTFDYKIPMDSVLRLFMLPHKDSRQMFFVLSLDPPIKQGQTRYHYLVLLFAPDEETTIELPFSEAELRDKYEGKLEKEISGPVYEVMGKVMKVLIGRKITGPGNFIGHSGTAAVGCSFKAAAGYLYPLERGFIYIHKPPLHIRFEEISSVNFARSGGSTRSFDFEVTLKNGTVHIFSSIEKEEYAKLFDYITQKKLHVSNMGKDKSGYKDVDFGDSDNENEPDAYLARLKAEAREKEEDDDDGDSDEESTDEDFKPNENESDVAEEYDSNVESDSDDDSDASGGGGDSDGAKKKKEKKSEKKEKKEKKHKEKERTKKPSKKKKDSGKPKRATTAFMLWLNDTRESIKRENPGIKVTEIAKKGGEMWKELKDKSKWEDAAAKDKQRYHDEMRNYKPEAGGDSDNEKGGKSSKKRKTEPSPSKKANTSGSGFKSKEYISDDDSTSSDDEKDNEPAKKKSKPPSDGDAKKKKAKSESEPEESEEDSNASDEDEEDEASD
binding: binds
